Experiment [1] addresses Dihydrolipoamide dehydrogenase (Lpd) of P. aeruginosa, recombinant full length (Lpd^1-478) (P. aeruginosa strain PAO1) (UniProt Q9I3D1). Put plainly: ELISA; Lpd (5 μg/ml) coated on microtiter plates overnight at 4°C; vitronectin (0.01–12.5 μg/ml), recombinant vitronectin constructs (5 μg/ml) or clusterin (0.01–20 μg/ml) added 1 h at RT; detected with antibodies, absorbance at 492 nm; both purified. Background: An ELISA detects its analyte on a solid surface through an enzyme-linked reagent.

By UniProt entry, the sequences of proteins in these tests, tags left out. Where a name states a change or a piece, a line headed by the entry shows the natural chain unless it says otherwise. Residues count along the entry.
UniProt P04004, residues 99-398: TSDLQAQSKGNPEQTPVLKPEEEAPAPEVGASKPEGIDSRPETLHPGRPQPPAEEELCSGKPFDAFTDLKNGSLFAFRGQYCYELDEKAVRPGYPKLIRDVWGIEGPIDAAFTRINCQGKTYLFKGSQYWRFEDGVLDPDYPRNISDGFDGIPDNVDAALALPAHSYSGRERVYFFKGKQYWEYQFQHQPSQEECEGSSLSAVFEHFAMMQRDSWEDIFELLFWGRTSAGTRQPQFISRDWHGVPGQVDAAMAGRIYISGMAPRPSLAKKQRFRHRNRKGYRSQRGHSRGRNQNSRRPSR
UniProt P10909: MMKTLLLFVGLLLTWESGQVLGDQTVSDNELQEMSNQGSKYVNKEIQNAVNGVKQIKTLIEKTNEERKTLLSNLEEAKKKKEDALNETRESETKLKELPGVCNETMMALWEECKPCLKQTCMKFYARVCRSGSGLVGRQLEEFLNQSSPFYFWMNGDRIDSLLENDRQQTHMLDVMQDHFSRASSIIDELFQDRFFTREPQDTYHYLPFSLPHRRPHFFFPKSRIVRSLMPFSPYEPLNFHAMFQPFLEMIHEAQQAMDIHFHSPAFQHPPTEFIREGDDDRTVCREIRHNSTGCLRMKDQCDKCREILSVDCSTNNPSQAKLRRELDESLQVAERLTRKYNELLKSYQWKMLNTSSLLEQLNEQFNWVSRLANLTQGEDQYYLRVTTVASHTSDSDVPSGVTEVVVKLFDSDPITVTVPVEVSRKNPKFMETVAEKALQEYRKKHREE

The target in experiment [2] is Lpd deletion mutant Lpd^264-478 (P. aeruginosa strain PAO1) (UniProt Q9I3D1). Put plainly: ELISA; equimolar amounts (13.3 nM) of full length Lpd and Lpd deletion mutants immobilized on microtiter plates; vitronectin or clusterin added; bound ligand quantified with antibodies; both purified.
Experiment [3] concerns the target Lpd deletion mutant Lpd^1-287 (P. aeruginosa strain PAO1) (UniProt Q9I3D1). The description is as above.
The target of experiment [4] is Lpd deletion mutant Lpd^141-478 (P. aeruginosa strain PAO1) (UniProt Q9I3D1). The experiment is described as above.

We go through two substances from publication PMC4569481.

No constants are given. Whether binding was seen depends on the method and setting. Some results given as binding are weak or reduced against the parent protein; the word gives no strength.

As for “vitronectin^80-379 (from UniProt P04004 99-398) (domain or fragment)”, the binding result in experiment [1] is reported as “binds”.
As to “clusterin, purified from human plasma (from UniProt P10909 23-227; P10909 228-449)”, the binding entry in experiment [2], in experiment [3] and in experiment [4] was “binds weakly” each time.
